Results from article PMC8302244 (CPT: Pharmacometrics & Systems Pharmacology, 2021).

Columns and labels:
[1] = Predicted individual exposure metrics; conditions: for AUC(0-t) / Cmax: human, in vivo; for AUC(0-t): AUC0–24 Mean; for Cmax: Cmax Mean
[2] = oral, patients; cited from earlier work
[3] = cited from earlier work
[4] = system: human cytochrome P450 3A4 (CYP3A4); conditions: human liver microsomes; cited from earlier work
[5] = Semimechanistic population PK model; conditions: for maximum increase in hepatic enzyme amount: maximum estimate for any subject in the enzyme compartment of the final model, Run 32, 75 mg dose
[6] = Besylate substudy—80 mg q.d., W1D1
[7] = 40 mg, Part 1—40 mg b.i.d., W3D4
[8] = 80 mg, Besylate substudy—80 mg q.d., W3D4
[9] = final model Run 32, oral, patients with solid tumors

CCNC(=O)C[C@@H]1N=C(c2ccc(Cl)cc2)c2cc(OC)ccc2-n2c(C)nnc21 [Molibresib]
Cmax Mean [1, 6]: 1160.0 ng/mL | Cmin Mean [1, 6]: 22.2 ng/mL | Cmin Mean ([1]; Besylate substudy—80 mg q.d., W3D4): 22.7 ng/mL | AUC0–24 Mean ([1]; Part 1—40 mg b.i.d., W1D1): 2790 ng/mL | Cmax Mean ([1]; Part 1—40 mg b.i.d., W1D1): 517.0 ng/mL | Cmin Mean ([1]; Part 1—40 mg b.i.d., W1D1): 55.9 ng/mL | Cmin Mean ([1]; Part 1—40 mg b.i.d., W3D4): 19.2 ng/mL | AUC0–24 Mean ([1]; Part 1—60 mg q.d., W1D1): 3600 ng/mL | Cmin Mean ([1]; Part 1—60 mg q.d., W1D1): 5.7 ng/mL | AUC0–24 Mean ([1]; Part 1—60 mg q.d., W3D4): 3170 ng/mL | Cmax Mean ([1]; Part 1—60 mg q.d., W3D4): 628.0 ng/mL | Cmin Mean ([1]; Part 1—60 mg q.d., W3D4): 10.2 ng/mL | AUC0–24 Mean ([1]; Part 1—80 mg q.d., W1D1): 5290 ng/mL | Cmin Mean ([1]; Part 1—80 mg q.d., W1D1): 47.7 ng/mL | Cmin Mean ([1]; Part 1—80 mg q.d., W3D4): 12.3 ng/mL | AUC0–24 Mean ([1]; Part 1—100 mg q.d., W1D1): 5980 ng/mL | Cmax Mean ([1]; Part 1—100 mg q.d., W1D1): 920.0 ng/mL | Cmin Mean ([1]; Part 1—100 mg q.d., W1D1): 33.6 ng/mL | AUC0–24 Mean ([1]; Part 1—100 mg q.d., W3D4): 5350 ng/mL | Cmax Mean ([1]; Part 1—100 mg q.d., W3D4): 810.0 ng/mL | Cmin Mean ([1]; Part 1—100 mg q.d., W3D4): 51.4 ng/mL | AUC0–24 Mean ([1]; Part 2—75 mg q.d., W1D1): 5260 ng/mL | Cmin Mean ([1]; Part 2—75 mg q.d., W1D1): 40.9 ng/mL | Cmin Mean ([1]; Part 2—75 mg q.d., W3D4): 22.7 ng/mL | AUC(0-t) [1, 7]: 3240 ng·h/mL | Cmax [1, 7]: 457 ng/mL | Cmax ([1]; 60 mg, Part 1—60 mg q.d., W1D1): 680 ng/mL | AUC(0-t) ([1]; 75 mg, Part 2—75 mg q.d., W3D4): 4330 ng·h/mL | Cmax ([1]; 75 mg, Part 2—75 mg q.d., W1D1): 935 ng/mL | Cmax ([1]; 75 mg, Part 2—75 mg q.d., W3D4): 785 ng/mL | AUC(0-t) ([1]; 80 mg, Besylate substudy—80 mg q.d., W1D1): 6610 ng·h/mL | AUC(0-t) [1, 8]: 5470 ng·h/mL | AUC(0-t) ([1]; 80 mg, Part 1—80 mg q.d., W3D4): 3500 ng·h/mL | Cmax [1, 8]: 1060 ng/mL | Cmax ([1]; 80 mg, Part 1—80 mg q.d., W1D1): 933 ng/mL | Cmax ([1]; 80 mg, Part 1—80 mg q.d., W3D4): 775 ng/mL | terminal half‐life (t1/2) [2]: 3 to 7 h | free fraction in plasma [3]: approximately 0.2 | in vitro substrate of human CYP3A4 [4]: substrate | Molibresib peripheral volume of distribution V2/F ([5]; final model Run 32): 17 L | autoinduction ([5]; final model Run 32): weak to moderate | Lagtime ALAG ([5]; final model Run 32, absorption lag): 0.132 h | Molibresib absorption rate ka [5, 9]: 4.08 h⁻¹ | Molibresib clearance CL/F [5, 9]: 9.02 L/h | Weight effect on V1/F and mV1/F ([5]; final model Run 32, power estimate of covariate effect): 0.717 | IIV on absorption rate ωka2 ([5]; final model Run 32, variance): 1.65 | Vd/F ([5]; human, in vivo): 53.1 L | maximum increase in hepatic enzyme amount [5]: 2.1 fold | maximum increase in hepatic enzyme amount ([5]; listed as molibresib): up to 2.1 fold
